Earlier results as cited in US9528993B2, “Agents and methods related to screening for resistance to DR5 and reducing resistance to DR5 agonists” (The UAB Research Foundation, priority 2005, dated 2016).

Test system: GSK-3
Settings: cited from earlier work

O=C1NC(=O)C(c2ccccc2[N+](=O)[O-])=C1Nc1ccc(O)c(Cl)c1 [SB415286]
inhibition of GSK-3: potent
